The text below walks through data of patent US6613536B1, “Synthetic peptides and pharmaceutical compositions comprising them for the treatment of systemic lupus erythematosus” (Yeda Research and Development Co. Ltd., priority 1995, dated 2003).

No constants are given. Whether binding was seen depends on the method and setting. Some entries that bind do so weakly or less than the wild type.

The experiment concerns the target T1, MHC class II products (H-2d) on splenic antigen-presenting cells of BALB/c mice (mouse) (UniProt P04228).
T1 sequence (alpha): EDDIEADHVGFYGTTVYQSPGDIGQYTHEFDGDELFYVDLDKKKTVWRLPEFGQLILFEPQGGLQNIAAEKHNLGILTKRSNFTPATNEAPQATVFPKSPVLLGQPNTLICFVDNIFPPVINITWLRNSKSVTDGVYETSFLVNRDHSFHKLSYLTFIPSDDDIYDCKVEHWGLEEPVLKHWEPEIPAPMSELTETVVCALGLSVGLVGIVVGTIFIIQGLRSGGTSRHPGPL
T1 sequence (beta): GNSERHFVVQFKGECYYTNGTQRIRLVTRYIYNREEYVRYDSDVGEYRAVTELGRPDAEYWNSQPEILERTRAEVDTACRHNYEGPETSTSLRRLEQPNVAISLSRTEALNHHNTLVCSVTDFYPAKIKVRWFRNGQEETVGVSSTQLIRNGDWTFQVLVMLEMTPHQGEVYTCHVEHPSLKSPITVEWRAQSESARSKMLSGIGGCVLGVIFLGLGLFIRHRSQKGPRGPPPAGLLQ
Put plainly: flow cytometry, biotinylated peptide on BALB/c splenic APC (FIG. 8). A general note: Flow cytometry measures light scatter and fluorescence of single cells or particles in a stream.

For the molecule YYCARFLWEPYAMDYWGQGS (N-terminal biotinylation (biotinamidocaproate N-hydroxysuccinimide ester)) [biotinylated CDR-based peptide IIIa], the binding result is on record as “binds”.
Consider TGYYMQWVKQSPEKSLEWIG (N-terminal biotinylation (biotinamidocaproate N-hydroxysuccinimide ester)) [biotinylated CDR-based peptide Ia], for which the binding entry is recorded as “binds”.
